No constants are given. Whether binding was seen depends on the method and setting. Some entries that bind do so weakly or less than the wild type. For some of these results: Tags and fused reporters may be left off the sequences shown.
T1: mouse EGFL7 (mEGFL7-CB-His) (mouse) (UniProt Q9QXT5)
T1 sequence: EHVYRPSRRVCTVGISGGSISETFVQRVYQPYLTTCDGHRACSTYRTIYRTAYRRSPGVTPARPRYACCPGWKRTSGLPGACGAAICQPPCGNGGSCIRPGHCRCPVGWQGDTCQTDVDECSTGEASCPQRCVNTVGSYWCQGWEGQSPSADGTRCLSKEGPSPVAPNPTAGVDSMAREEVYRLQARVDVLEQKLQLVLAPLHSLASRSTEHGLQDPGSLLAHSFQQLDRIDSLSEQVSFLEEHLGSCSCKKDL

T2: full length human EGFL7 (expressed in CHO cells) (human) (UniProt Q9UHF1)
T2 sequence: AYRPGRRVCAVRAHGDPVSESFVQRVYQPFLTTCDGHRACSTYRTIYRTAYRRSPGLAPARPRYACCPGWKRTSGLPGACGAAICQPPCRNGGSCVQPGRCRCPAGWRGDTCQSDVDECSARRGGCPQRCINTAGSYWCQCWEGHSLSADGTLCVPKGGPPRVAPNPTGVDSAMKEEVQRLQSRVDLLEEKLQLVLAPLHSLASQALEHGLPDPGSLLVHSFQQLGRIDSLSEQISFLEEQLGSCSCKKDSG


Key:
[1] = molecular target: T1, mouse EGFL7 (mEGFL7-CB-His) (mouse); experiment: SPR (Biacore), IgG over immobilized mEGFL7
[2] = molecular target: T1, mouse EGFL7 (mEGFL7-CB-His) (mouse); experiment: SPR (Biacore), IgG over immobilized antigen
[3] = molecular target: T2, full length human EGFL7 (expressed in CHO cells) (human); experiment: phage binding to antigen immobilized on microtiter plate

Binder | binding [1] | binding [2] | binding [3]
18F7.v1 IgG (18F7-graft) (antibody, V domains shown) VH: EVQLVESGGGLVQPGGSLRLSCAASGYTFIDYYMNWVRQAPGKGLEWVGDINLDNGGTHYNQKFKGRFTISRDNSKNTLYLQMNSLRAEDTAVYYCAREGVYHDYDDYAMDYWGQGTLVTVSS VL: DIQMTQSPSSLSASVGDRVTITCRTSQSLVHINGITYLHWYQQKPGKAPKLLIYRVSNRFSGVPSRFSGSGSGTDFTLTISSLQPEDFATYYCSQSTHVPLTFGQGTKVEIKR | binds | binds | –
18F7.v2 IgG (antibody, name in Kabat numbering, V domains shown) VH: EVQLVESGGGLVQPGGSLRLSCAASGYTFIDYYMNWVRQAPGKGLEWVGDINLDNGGTHYNQKFKGRFTISRDKSKNTLYLQMNSLRAEDTAVYYCAREGVYHDYDDYAMDYWGQGTLVTVSS VL: DIQMTQSPSSLSASVGDRVTITCRTSQSLVHINGITYLHWYQQKPGKAPKLLIYRVSNRFSGVPSRFSGSGSGTDFTLTISSLQPEDFATYYCSQSTHVPLTFGQGTKVEIKR | binds | binds | –
18F7.v3 IgG (antibody, name in Kabat numbering, V domains shown) VH: EVQLVESGGGLVQPGGSLRLSCAASGYTFIDYYMNWVRQAPGKGLEWVGDINLDNGGTHYNQKFKGRFTISRDKSKNTAYLQMNSLRAEDTAVYYCAREGVYHDYDDYAMDYWGQGTLVTVSS VL: DIQMTQSPSSLSASVGDRVTITCRTSQSLVHINGITYLHWYQQKPGKAPKLLIYRVSNRFSGVPSRFSGSGSGTDFTLTISSLQPEDFATYYCSQSTHVPLTFGQGTKVEIKR | binds | binds | –
18F7.v4 IgG (antibody, name in Kabat numbering, V domains shown) VH: EVQLVESGGGLVQPGGSLRLSCAASGYTFIDYYMNWVRQAPGKGLEWVGDINLDNGGTHYNQKFKGRFTISRDKSKNTVYLQMNSLRAEDTAVYYCAREGVYHDYDDYAMDYWGQGTLVTVSS VL: DIQMTQSPSSLSASVGDRVTITCRTSQSLVHINGITYLHWYQQKPGKAPKLLIYRVSNRFSGVPSRFSGSGSGTDFTLTISSLQPEDFATYYCSQSTHVPLTFGQGTKVEIKR | binds | binds | –
18F7.v5 IgG (antibody, V domains shown) VH: EVQLVESGGGLVQPGGSLRLSCAASGYTFIDYYMNWVRQAPGKGLEWVGDINLDNGGTHYNQKFKGRFTISRDKSKNTAYLQMNSLRAEDTAVYYCAREGVYHDYDDYAMDYWGQGTLVTVSS VL: DIQMTQSPSSLSASVGDRVTITCRTSQSLVHINGITYLHWYQQKPGKAPKLLIYRVSNRGSGVPSRFSGSGSGTDFTLTISSLQPEDFATYYCSQSTHVPLTFGQGTKVEIK | binds | binds | –
18F7.v6 IgG (antibody, V domains shown) VH: EVQLVESGGGLVQPGGSLRLSCAASGYTFIDYYMNWVRQAPGKGLEWVGDINLDNGGTHYNQKFKGRFTISRDKSKNTAYLQMNSLRAEDTAVYYCAREGVYHDYDDYAMDYWGQGTLVTVSS VL: DIQMTQSPSSLSASVGDRVTITCRTSQSLVHINGITYLHWYQQKPGKAPKLLIYRVSNRFSGVPSRFSGSGSGTDFTLTISSLQPEDFATYYCGQSTHVPLTFGQGTKVEIKR | binds | binds | –
18F7.v7 IgG (antibody, V domains shown) VH: EVQLVESGGGLVQPGGSLRLSCAASGYTFIDYYMNWVRQAPGKGLEWVGDINLDNGGTHYNQKFKGRFTISRDKSKNTAYLQMNSLRAEDTAVYYCAREGVYHDYDDYAMDYWGQGTLVTVSS VL: DIQMTQSPSSLSASVGDRVTITCRTSQSLVHINGITYLHWYQQKPGKAPKLLIYRVSNRFSGVPSRFSGSGSGTDFTLTISSLQPEDFATYYCAQSTHVPLTFGQGTKVEIK | binds | binds | –
18F7.v8 IgG (antibody, V domains shown) VH: EVQLVESGGGLVQPGGSLRLSCAASGYTFIDYYMNWVRQAPGKGLEWVGDINLDNGGTHYNQKFKGRFTISRDKSKNTAYLQMNSLRAEDTAVYYCAREGVYHDYDDYAMDYWGQGTLVTVSS VL: DIQMTQSPSSLSASVGDRVTITCRTSQSLVHINGITYLHWYQQKPGKAPKLLIYRVSNRFSGVPSRFSGSGSGTDFTLTISSLQPEDFATYYCVQSTHVPLTFGQGTKVEIK | binds | binds | –
18F7.v9 IgG (antibody, V domains shown) VH: EVQLVESGGGLVQPGGSLRLSCAASGYTFIDKYMNWVRQAPGKGLEWVGDINLDNGGTHYNQKFKGRFTISRDKSKNTAYLQMNSLRAEDTAVYYCAREGVYHDYDDYAMDYWGQGTLVTVSS VL: DIQMTQSPSSLSASVGDRVTITCRTSQSLVHINGITYLHWYQQKPGKAPKLLIYRVSNRFSGVPSRFSGSGSGTDFTLTISSLQPEDFATYYCSQSTHVPLTFGQGTKVEIK | binds | binds | –
18F7.v10 IgG (antibody, V domains shown) VH: EVQLVESGGGLVQPGGSLRLSCAASGYTFIDYYMNWVRQAPGKGLEWVGDINLDNGGTHYNQKFKGRFTISRDKSKNTAYLQMNSLRAEDTAVYYCAREGVYHPYDDYAMDYWGQGTLVTVSS VL: DIQMTQSPSSLSASVGDRVTITCRTSQSLVHINGITYLHWYQQKPGKAPKLLIYRVSNRFSGVPSRFSGSGSGTDFTLTISSLQPEDFATYYCSQSTHVPLTFGQGTKVEIK | binds | binds | –
phage displaying 4F11.v1 Fab (Fab, V domains shown) VH: EVQLVESGGGLVQPGGSLRLSCAASGHTFTTYGMSWVRQAPGKGLEWVGWINTHSGVPTYADDFKGRFTISRDNSKNTLYLQMNSLRAEDTAVYYCARLGSSAVDYWGQGTLVTVSS VL: DIQMTQSPSSLSASVGDRVTITCKASQSVDYDGDSYMSWYQQKPGKAPKLLIYGASNLESGVPSRFSGSGSGTDFTLTISSLQPEDFATYYCQQNNEDPYTFGQGTKVEIKR | – | – | binds
phage displaying 18F7-graft Fab (Fab, V domains shown) VH: EVQLVESGGGLVQPGGSLRLSCAASGYTFIDYYMNWVRQAPGKGLEWVGDINLDNGGTHYNQKFKGRFTISRDNSKNTLYLQMNSLRAEDTAVYYCAREGVYHDYDDYAMDYWGQGTLVTVSS VL: DIQMTQSPSSLSASVGDRVTITCRTSQSLVHINGITYLHWYQQKPGKAPKLLIYRVSNRFSGVPSRFSGSGSGTDFTLTISSLQPEDFATYYCSQSTHVPLTFGQGTKVEIKR | – | – | binds

— patent publication US20140051120A1
